Assay results reported in PubChem BioAssay AID504834 (National Center for Advancing Translational Sciences (NCATS), 2011).
Hit rate of the full screen: of about 320,000 compounds, about 22,000 (6.9%) were called active. Inconclusive results, whose numbers are uncertain, are shown with a selection of clear calls. The call rests on the fitted dose curve; in most records, active means well fitted inhibition curve with a large enough effect; inconclusive means small, poorly fitted or top-dose-only effect, or another doubt; inactive means no such curve, though single readings can be large or run the other way. A potency beside an inconclusive call is a rough fit, not a confirmed value.

assay: Primary qHTS for delayed death inhibitors of the malarial parasite plastid, 96 hour incubation; settings: P. falciparum luciferase reporter growth; series mostly up to 28.7 µM
How it was run: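 P. falciparum expressing integrated firefly luciferase grown in erythrocytes (2% hematocrit, 0.05% parasitemia final) with compounds for 96 hours at 37 C, 5% CO2. Growth inhibition read as loss of luminescence after adding luciferase detection reagent.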
Potency means the concentration at half of the fitted maximal effect.

Row | SMILES | Potency
1 | O=C(N/N=C/c1cccc(NC(=O)c2ccc(Cl)cc2)c1)c1ccc(O)cc1 | inconclusive: 3.7 µM [inhibitor, partial curve, poor fit]
2 | CCC(C)N1C(=O)CCC1C(=O)NCCc1ccc(Cl)cc1 (stereo not given) | inconclusive: 13.1 µM [inhibitor, partial curve, poor fit]
3 | Cn1cc([N+](=O)[O-])c(C(=O)NC2CCCC2)n1 | inconclusive: 0.329 µM [inhibitor, partial curve, poor fit]
4 | CCCCn1c2ccccc2c2nnc(SCCN3CCCCC3)nc21 | inconclusive: 4.65 µM [inhibitor, partial curve]
5 | Cc1cc(NC(=O)Nc2ccccc2F)ccc1Br | inconclusive: 18.5 µM [inhibitor, single point]
6 | Cc1cc(N/N=C/c2c(O)ccc3ccccc23)nc(-c2ccccc2O)n1 | inconclusive: 18.5 µM [inhibitor, single point]
7 | O=C1OCCN1C(=O)[C@H]1[C@H](c2ccc(Cl)cc2)C(c2cccc(Cl)c2)=NN1c1ccccc1 | inconclusive: 18.5 µM [inhibitor, single point]
8 | CCCC#CCN1CCN(C23CC4CC(CC(C4)C2)C3)CC1 | inactive
9 | CC1CC(C)CN(CCCNC(=O)c2ccc3c(c2)ncn3C2CCCC2)C1 (stereo not given) | active: 10.4 µM
10 | COCCNC(=O)C1CC(c2cccc(OC)c2)=NO1 (stereo not given) | inactive
11 | CN[C@H]1CCc2cc(OC)c(OC)c(OC)c2-c2ccc(N(C)CC(OC)OC)c(=O)cc21 | inconclusive: 13.1 µM [inhibitor, partial curve]
12 | O=C(COc1ccc(Br)cc1)N(Cc1ccccc1)c1ccccn1 | inconclusive: 11.7 µM [inhibitor, single point]
13 | O=C(Nc1nc(-c2cc(F)ccc2F)cs1)c1cccc(N2C(=O)CCC2=O)c1 | inactive
14 | Cc1ccccc1OCc1nnc(SCc2cc(=O)[nH]c3ccccc23)n1-c1ccccc1 | inconclusive: 0.465 µM [inhibitor, full curve, poor fit]
15 | COc1ccc(N2C3=C(C(=O)CC(C)(C)C3)C(c3cnn(C)c3)C3=C2CC(C)(C)CC3=O)cc1 | active: 4.15 µM
16 | CCCC(/C=C/c1ccc(OC(C)=O)cc1)=C1/c2ccccc2C(=O)N1c1ccccc1 | inconclusive: 11.7 µM [inhibitor, partial curve]
17 | Cc1ccc2c(CC(=O)Nc3sccc3C(N)=O)coc2c1 | inactive
18 | O=C(CCSc1ccccc1)NNC(=O)c1ccccc1F | inactive
19 | c1ccc(C(c2nnnn2C2CCCC2)N2CCN(c3ccccc3)CC2)cc1 (stereo not given) | inconclusive: 18.5 µM [inhibitor, single point]
20 | COc1ccccc1N1CCN(C(=O)c2cccc(S(=O)(=O)N3CCCCCC3)c2)CC1 | inconclusive: 11.7 µM [inhibitor, single point]
21 | CCOC(=O)N1CCN(C(=O)/C=C/c2ccc(OC)c(OC)c2)CC1 | inconclusive: 11.7 µM [inhibitor, single point]
22 | COc1cc(OC)c(OC)cc1/C=C1/Cc2ccccc2C1=O | inconclusive: 18.5 µM [inhibitor, single point]
23 | COc1ccc2ccccc2c1CN1CCN(C(=O)c2ccccc2)CC1 | inactive
24 | NC(=O)CCC(C(=O)O)N1C(=O)c2ccc(O)cc2C1=O (stereo not given) | inactive

Row | SMILES | Potency
25 | O=C(Nc1ccc(OCc2ccccc2Cl)cc1)c1cccnc1 | inconclusive: 3.29 µM [inhibitor, single point]
26 | CCCN(CCC)CC(=O)Nc1cccc2c1OCO2 | active: 11.7 µM
27 | COC(=O)c1[nH]c2ccc(C)cc2c1NS(=O)(=O)c1ccc(F)cc1 | inactive
28 | CCOC(=O)N1CCN(C(=O)CN(c2cccc(C)c2)S(=O)(=O)c2ccccc2)CC1 | inactive
29 | O=C(Nc1ccc(Br)cc1)c1ccc(F)c(S(=O)(=O)NCc2cccs2)c1 | inconclusive: 10.4 µM [inhibitor, single point]
30 | Cc1cc(C)cc(C(=O)N2CCN=C2c2ccccc2)c1 | inconclusive: 8.28 µM [inhibitor, partial curve]
31 | O=C(CCC(=O)N1CCN(c2ccccn2)CC1)Nc1nnc(C(F)(F)F)s1 | inconclusive: 16.5 µM [inhibitor, single point]
32 | CC1(C)Cc2c(sc3nnn(Cc4ccccc4)c(=O)c23)CO1 | inconclusive: 18.5 µM [inhibitor, single point]
33 | Cc1cc(N(C)/N=C/c2ccccc2O)nc(-c2ccccc2O)n1 | inconclusive: 0.104 µM [inhibitor, full curve, poor fit]
34 | Cc1ccc(S(=O)(=O)C(C#N)c2nc3ccccc3nc2N2CCC(C)CC2)cc1 (stereo not given) | inconclusive: 11.7 µM [inhibitor, single point]
35 | CCOC(=O)C1CCCN(C(=O)COc2ccc(C(=O)c3ccccc3)cc2)C1 (stereo not given) | inactive
36 | Cc1cc(C)c(NC(=O)C2=CCN(S(=O)(=O)c3ccc(F)cc3)CC2)c(C)c1 | inconclusive: 18.5 µM [inhibitor, single point]
37 | COCCNC(=O)CSc1ccc(C)cc1 | inconclusive: 18.5 µM [inhibitor, single point]
38 | COc1cccc(CN2CC(C(=O)NCCOc3ccccc3)CCC2=O)c1 (stereo not given) | inconclusive: 18.5 µM [inhibitor, single point]
39 | COc1ccc(NC(=O)CSc2nc3[nH]c(=O)cc(O)c3s2)c(OC)c1 | inactive
40 | CN(c1ccccc1)S(=O)(=O)c1cc(C(=O)Nc2nc3ccccc3[nH]2)ccc1Cl | inconclusive: 18.5 µM [inhibitor, single point]
41 | CCCC(=O)Nc1ccc(-c2nc3ncccc3o2)cc1 | inconclusive: 9.28 µM [inhibitor, partial curve]
42 | O=C(NC(=S)Nc1nc(-c2ccccc2)cs1)c1cncc(Br)c1 | inconclusive: 3.29 µM [inhibitor, full curve, poor fit]
43 | O=C(NCc1cccc(C(F)(F)F)c1)c1ccc2c(c1)OCO2 | inconclusive: 18.5 µM [inhibitor, single point]
44 | COc1ccccc1Nc1cc(C(=O)NCCCN2CCOCC2)c2ccccc2n1 | active: 0.928 µM
45 | O=C(O)c1cc(-c2ccccn2)n[nH]1 | inconclusive: 2.94 µM [inhibitor, partial curve, poor fit]
46 | O=[N+]([O-])c1cccc2c1ccc1ncccc12 | inconclusive: 9.28 µM [inhibitor, partial curve]
47 | Cc1ccc(NC(=O)Cn2ccsc2=N)c([N+](=O)[O-])c1 | inconclusive: 18.5 µM [inhibitor, single point]
48 | CCO[C@@H]1OC(C(=O)N2CCCCCCC2)=C[C@H](c2csc3ccccc23)[C@H]1CCCO | inconclusive: 11.7 µM [inhibitor, single point]

Row | SMILES | Potency
49 | COCCNC(=O)C1CCC(CNS(=O)(=O)c2cccc3nsnc23)CC1 (stereo not given) | inconclusive: 18.5 µM [inhibitor, single point]
50 | Cc1nnc(SCc2cnc(-c3ccc(C(C)C)cc3)s2)n1C | active: 11.7 µM
51 | COc1ccccc1N1CCN(C(=O)c2ccc3[nH]c4c(c3c2)CCCC4)CC1 | active: 11.7 µM
52 | O=C(NCc1ccccc1)c1cc(-c2cccs2)on1 | inactive
53 | O=c1nccc(N/N=C/c2ccccc2O)[nH]1 | active: 0.828 µM
54 | CC1CCC(NC(=O)Cn2c(=O)[nH]c3ccsc3c2=O)CC1 (stereo not given) | inconclusive: 6.57 µM [inhibitor, partial curve, poor fit]
55 | C=CC[N+](C)(C)c1ccc(CCC(=O)CCc2ccc([N+](C)(C)CC=C)cc2)cc1 | active: 0.147 µM
56 | C=CCN(c1cccc(C(F)(F)F)c1)S(=O)(=O)c1cccc(C(=O)OCC(=O)NC)c1 | active: 11.7 µM
57 | NC(N)=NN=C1c2ccccc2-c2ccccc21 | inconclusive: 11.7 µM [inhibitor, single point]
58 | CC(C)C(=O)NC(c1ccc([N+](=O)[O-])cc1)c1c(O)ccc2ccccc12 (stereo not given) | active: 2.62 µM
59 | CCCNC(=O)N1[C@H]2CC[C@@H]1C(C(=O)OC)=C(c1ccc(C(C)=O)cc1)C2 | inconclusive: 16.5 µM [inhibitor, partial curve, poor fit]
60 | O=c1c2c3c(sc2[nH]c(=S)n1Cc1ccco1)CCC3 | inactive
61 | Cc1nn2c(-c3ccncc3)ccnc2c1Br | inconclusive: 18.5 µM [inhibitor, single point]
62 | Cc1ccc(N2CCN(c3ccc(NCc4nc5ccccc5n4C)cc3)CC2)cc1 | active: 5.22 µM
63 | Cc1cc(C(=O)N2CCN(c3ncccn3)CC2)c(C)o1 | inconclusive: 7.38 µM [inhibitor, partial curve, poor fit]
64 | CCN(CC)CCCN1C=C2C(=O)C(C)(OC(=O)C3CCCC3)C(=O)C(c3ccccc3)=C2C=C1CCCC(=O)OC (stereo not given) | inconclusive: 13.1 µM [inhibitor, single point]
65 | CCCC[N+](CC#CCO)(CC#Cc1ccccc1)CCCC | inconclusive: 2.08 µM [inhibitor, full curve, poor fit]
66 | O=C(OCc1ccc([N+](=O)[O-])cc1)c1ccc2ccccc2n1 | inactive
67 | CCOC(=O)c1ccc(NC(=O)Cn2cnc3cc(C)c(C)cc32)cc1 | inconclusive: 18.5 µM [inhibitor, single point]
68 | CCOC(=O)C1C(=O)NC(c2ccccc2)=NC1c1ccc(OC)cc1 (stereo not given) | inactive
69 | O=C(C=C=Nc1ccccc1)C(=O)N=C=Cc1ccccc1 | inconclusive: 13.1 µM [inhibitor, single point]
70 | COc1ccc(Br)cc1-c1nc2c(c(=O)[nH]c(=O)n2Cc2ccccc2)n1C | inactive

Looked up one by one from the entries so far (3):
Row | SMILES | Potency
52 | O=C(NCc1ccccc1)c1cc(-c2cccs2)on1 | inactive
20 | COc1ccccc1N1CCN(C(=O)c2cccc(S(=O)(=O)N3CCCCCC3)c2)CC1 | inconclusive: 11.7 µM [inhibitor, single point]
2 | CCC(C)N1C(=O)CCC1C(=O)NCCc1ccc(Cl)cc1 (stereo not given) | inconclusive: 13.1 µM [inhibitor, partial curve, poor fit]
